Compound in the test: ClCC(=O)N[C@H]1CCCc2ccccc12
The test can be described thus: log2 mean competition ratio of IA-DTB cysteine labelling (DMSO/compound) (log2 ratio); higher = stronger cysteine engagement by compound. As to conditions: treatment time: 4 h, cell line lysate: HEK293T. Here is the method:
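IA-DTB competitive cysteine chemoproteomics in HEK293T RIPA lysate. Lysates were treated with compound 29 or 30 at 50 or 200 µM for 4 h, then IA-DTB (500 µM, 1 h), trypsin-digested, NeutrAvidin-enriched and analysed by diaPASEF. Competition ratio = intensity DMSO / intensity compound (n=4 treated, n=64 DMSO); binding: mean log2 CR ≥ 1 and p ≤ 0.05 plus QC filters. Target is the cysteine site.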

The chains behind the UniProt entries cited, without tags or fusion partners. Where a name states a change or a piece, a line headed by the entry shows the natural chain unless it says otherwise. Residues count along the entry.
UniProt Q9H0G5: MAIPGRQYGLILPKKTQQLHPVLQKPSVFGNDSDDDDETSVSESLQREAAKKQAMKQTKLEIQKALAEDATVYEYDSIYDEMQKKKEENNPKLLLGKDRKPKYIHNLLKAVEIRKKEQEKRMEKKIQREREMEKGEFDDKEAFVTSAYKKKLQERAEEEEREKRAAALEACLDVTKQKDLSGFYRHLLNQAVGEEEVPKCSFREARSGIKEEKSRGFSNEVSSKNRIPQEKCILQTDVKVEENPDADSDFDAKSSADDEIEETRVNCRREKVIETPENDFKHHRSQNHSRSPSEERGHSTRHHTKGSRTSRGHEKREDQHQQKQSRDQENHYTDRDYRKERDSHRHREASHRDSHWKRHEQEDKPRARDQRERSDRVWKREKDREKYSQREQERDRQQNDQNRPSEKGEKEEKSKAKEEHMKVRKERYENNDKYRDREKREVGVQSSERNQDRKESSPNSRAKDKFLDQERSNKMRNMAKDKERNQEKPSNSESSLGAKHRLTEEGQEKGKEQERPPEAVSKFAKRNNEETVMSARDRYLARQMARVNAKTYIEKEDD
UniProt P24468: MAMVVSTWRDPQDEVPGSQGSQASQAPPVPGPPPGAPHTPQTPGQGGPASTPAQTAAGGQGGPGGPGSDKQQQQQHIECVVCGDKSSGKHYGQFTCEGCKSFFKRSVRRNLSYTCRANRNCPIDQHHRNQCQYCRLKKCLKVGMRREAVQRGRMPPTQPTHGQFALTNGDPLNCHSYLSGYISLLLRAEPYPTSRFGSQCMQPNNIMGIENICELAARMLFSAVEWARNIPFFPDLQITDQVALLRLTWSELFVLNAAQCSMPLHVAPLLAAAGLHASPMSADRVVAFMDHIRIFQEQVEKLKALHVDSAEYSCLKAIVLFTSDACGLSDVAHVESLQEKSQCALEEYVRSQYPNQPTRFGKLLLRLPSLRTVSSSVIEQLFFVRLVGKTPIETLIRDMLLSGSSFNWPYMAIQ
UniProt Q08J23, 738-767: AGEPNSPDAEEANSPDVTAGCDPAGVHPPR
UniProt O43929: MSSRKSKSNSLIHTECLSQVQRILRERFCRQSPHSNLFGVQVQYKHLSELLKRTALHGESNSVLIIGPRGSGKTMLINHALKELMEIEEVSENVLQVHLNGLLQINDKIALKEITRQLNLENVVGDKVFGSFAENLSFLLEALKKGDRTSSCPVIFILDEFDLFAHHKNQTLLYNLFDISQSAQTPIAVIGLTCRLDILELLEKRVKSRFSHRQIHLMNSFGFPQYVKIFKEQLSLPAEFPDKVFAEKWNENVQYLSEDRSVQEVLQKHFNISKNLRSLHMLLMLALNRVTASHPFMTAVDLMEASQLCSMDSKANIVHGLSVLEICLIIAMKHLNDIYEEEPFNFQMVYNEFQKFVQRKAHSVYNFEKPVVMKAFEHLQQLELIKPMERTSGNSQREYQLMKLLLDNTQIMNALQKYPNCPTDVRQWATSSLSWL
UniProt O15381: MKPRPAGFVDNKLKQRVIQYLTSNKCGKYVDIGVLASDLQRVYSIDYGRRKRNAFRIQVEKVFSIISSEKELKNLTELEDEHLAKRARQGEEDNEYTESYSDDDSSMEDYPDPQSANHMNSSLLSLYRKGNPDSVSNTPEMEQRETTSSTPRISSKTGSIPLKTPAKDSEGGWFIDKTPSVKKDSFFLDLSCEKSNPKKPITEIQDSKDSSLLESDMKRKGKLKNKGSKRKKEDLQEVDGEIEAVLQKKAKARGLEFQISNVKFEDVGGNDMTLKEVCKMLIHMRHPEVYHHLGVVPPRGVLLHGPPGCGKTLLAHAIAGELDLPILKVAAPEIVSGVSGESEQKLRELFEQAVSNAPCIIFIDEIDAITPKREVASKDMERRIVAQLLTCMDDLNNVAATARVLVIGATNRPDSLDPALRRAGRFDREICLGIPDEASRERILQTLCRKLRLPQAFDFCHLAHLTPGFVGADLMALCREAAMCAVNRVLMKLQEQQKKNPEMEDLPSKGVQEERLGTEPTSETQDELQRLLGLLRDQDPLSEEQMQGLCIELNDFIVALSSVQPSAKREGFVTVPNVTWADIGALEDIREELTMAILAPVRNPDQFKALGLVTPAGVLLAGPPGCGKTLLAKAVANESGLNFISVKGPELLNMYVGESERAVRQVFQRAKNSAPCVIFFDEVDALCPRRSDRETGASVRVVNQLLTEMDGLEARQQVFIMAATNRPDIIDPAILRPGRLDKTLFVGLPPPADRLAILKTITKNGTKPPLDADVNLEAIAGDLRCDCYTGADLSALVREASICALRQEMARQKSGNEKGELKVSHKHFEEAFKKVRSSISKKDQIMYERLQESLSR
UniProt Q9Y6R0: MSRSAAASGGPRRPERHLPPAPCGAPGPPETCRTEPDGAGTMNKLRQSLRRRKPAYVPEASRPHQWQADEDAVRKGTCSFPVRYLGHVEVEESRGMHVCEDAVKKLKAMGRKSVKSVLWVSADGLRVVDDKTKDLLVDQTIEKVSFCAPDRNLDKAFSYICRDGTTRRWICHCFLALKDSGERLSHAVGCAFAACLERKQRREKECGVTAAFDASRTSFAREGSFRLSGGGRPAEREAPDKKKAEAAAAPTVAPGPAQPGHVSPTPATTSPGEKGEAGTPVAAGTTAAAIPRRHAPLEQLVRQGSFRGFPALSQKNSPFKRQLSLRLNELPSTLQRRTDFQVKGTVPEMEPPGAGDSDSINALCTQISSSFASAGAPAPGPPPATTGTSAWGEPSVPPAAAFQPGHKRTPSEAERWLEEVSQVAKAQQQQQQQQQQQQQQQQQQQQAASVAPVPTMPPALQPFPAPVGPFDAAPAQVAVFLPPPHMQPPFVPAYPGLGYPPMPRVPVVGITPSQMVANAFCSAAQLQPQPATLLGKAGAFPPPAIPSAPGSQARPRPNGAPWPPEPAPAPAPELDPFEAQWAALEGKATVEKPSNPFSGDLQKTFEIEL
UniProt Q9UBU9: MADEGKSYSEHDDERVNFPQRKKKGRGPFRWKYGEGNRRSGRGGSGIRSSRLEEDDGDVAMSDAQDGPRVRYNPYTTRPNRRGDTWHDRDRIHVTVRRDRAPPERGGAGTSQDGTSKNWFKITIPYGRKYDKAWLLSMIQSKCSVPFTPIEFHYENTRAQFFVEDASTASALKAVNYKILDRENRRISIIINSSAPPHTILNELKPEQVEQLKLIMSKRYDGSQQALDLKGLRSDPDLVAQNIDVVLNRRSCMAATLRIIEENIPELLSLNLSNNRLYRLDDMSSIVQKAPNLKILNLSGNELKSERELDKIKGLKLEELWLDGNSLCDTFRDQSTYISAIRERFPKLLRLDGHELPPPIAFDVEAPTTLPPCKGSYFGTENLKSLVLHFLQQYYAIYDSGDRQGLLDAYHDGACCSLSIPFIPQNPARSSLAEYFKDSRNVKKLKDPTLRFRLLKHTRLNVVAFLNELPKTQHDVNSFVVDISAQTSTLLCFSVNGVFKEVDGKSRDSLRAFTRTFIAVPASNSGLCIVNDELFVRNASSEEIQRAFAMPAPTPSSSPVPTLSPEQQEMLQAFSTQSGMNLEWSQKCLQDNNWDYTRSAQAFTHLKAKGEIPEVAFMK
UniProt Q5TFE4: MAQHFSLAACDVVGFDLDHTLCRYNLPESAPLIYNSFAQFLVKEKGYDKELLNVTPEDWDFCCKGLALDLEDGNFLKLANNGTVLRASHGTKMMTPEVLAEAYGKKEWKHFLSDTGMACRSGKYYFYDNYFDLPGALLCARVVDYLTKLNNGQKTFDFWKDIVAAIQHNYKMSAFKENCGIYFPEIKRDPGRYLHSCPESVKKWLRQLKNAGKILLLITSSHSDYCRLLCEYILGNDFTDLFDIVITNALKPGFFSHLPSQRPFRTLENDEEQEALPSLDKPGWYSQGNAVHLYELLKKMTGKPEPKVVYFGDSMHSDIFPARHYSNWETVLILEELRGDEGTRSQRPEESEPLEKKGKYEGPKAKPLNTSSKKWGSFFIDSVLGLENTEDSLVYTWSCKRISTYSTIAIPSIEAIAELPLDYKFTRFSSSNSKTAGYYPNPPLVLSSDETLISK
UniProt Q12769: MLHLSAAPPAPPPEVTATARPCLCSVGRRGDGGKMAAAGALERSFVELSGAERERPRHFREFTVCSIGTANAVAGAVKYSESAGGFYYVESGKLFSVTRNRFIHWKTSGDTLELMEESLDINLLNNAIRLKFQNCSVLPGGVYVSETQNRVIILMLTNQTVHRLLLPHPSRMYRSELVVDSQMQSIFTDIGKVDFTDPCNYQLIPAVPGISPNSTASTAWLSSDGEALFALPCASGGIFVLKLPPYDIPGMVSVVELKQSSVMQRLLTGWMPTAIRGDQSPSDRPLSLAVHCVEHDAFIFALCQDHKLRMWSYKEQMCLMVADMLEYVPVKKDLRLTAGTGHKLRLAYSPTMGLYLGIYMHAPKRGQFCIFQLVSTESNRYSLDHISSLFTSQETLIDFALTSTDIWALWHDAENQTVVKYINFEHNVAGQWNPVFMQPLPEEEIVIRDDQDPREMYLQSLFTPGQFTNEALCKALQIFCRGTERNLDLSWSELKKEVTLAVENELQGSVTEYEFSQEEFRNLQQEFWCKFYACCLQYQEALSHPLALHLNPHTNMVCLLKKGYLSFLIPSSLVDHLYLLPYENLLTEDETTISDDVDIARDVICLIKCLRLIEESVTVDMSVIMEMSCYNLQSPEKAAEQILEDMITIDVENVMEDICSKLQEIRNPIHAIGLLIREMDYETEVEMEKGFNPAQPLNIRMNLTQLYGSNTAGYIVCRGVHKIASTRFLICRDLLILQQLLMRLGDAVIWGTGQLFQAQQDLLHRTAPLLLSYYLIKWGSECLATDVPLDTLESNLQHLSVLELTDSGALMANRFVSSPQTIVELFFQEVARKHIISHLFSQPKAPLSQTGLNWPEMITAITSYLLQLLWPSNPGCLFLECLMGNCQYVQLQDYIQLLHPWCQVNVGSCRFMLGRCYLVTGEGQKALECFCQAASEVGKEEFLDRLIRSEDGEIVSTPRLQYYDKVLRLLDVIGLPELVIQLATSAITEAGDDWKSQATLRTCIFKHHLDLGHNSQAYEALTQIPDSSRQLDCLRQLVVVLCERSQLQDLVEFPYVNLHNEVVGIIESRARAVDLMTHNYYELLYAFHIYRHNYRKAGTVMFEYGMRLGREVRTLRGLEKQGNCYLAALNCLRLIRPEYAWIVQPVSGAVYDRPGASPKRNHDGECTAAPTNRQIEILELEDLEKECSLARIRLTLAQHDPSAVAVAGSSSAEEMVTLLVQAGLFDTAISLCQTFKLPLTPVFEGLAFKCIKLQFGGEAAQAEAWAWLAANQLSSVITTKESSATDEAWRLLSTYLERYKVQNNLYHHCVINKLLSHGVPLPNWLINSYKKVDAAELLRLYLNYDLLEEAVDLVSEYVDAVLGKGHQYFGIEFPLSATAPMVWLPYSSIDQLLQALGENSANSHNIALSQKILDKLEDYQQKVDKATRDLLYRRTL
UniProt Q02218: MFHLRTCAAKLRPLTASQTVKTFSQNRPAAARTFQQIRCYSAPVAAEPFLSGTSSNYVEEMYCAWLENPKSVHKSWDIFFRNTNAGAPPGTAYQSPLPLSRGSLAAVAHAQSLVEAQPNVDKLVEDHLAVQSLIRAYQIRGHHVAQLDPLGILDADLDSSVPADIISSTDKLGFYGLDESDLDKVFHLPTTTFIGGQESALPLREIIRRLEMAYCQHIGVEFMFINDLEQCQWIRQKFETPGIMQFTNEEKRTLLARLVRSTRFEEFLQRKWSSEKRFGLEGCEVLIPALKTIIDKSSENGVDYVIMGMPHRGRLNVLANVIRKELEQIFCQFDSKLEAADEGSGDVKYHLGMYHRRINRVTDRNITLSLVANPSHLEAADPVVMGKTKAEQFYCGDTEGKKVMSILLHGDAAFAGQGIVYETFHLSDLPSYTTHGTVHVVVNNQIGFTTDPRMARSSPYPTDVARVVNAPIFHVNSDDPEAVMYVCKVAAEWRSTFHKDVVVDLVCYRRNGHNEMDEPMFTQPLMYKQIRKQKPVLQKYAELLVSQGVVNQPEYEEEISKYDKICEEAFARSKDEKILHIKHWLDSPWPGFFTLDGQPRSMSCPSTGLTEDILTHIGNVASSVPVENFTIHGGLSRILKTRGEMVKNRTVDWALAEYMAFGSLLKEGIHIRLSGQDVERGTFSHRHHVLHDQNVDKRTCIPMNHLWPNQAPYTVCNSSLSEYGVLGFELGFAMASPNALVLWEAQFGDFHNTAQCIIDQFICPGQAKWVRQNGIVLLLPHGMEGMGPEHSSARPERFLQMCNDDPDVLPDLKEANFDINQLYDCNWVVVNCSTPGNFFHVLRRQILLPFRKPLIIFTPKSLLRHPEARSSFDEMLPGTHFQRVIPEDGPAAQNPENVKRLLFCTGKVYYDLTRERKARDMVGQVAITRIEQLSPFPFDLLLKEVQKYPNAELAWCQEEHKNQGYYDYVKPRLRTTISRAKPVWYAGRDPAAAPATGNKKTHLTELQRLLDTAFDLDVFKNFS

The other results are listed elsewhere or left out. The data scatter; read single values as rough.

Regarding NSRP1 C232 (UniProt Q9H0G5), the “log2 mean competition ratio” value amounted to 0.79 (50 µM) and 0.114 (200 µM).

Regarding ORC3 C639 (UniProt Q9UBD5), the “log2 mean competition ratio” value reads like this: (50 µM) 0.217; (200 µM) -0.167.

On to NR2F2 C115 (UniProt P24468), for which the “log2 mean competition ratio” value by setting is: (50 µM) 0.595; (200 µM) 0.0292.

Take NSUN2 C758 (UniProt Q08J23): the “log2 mean competition ratio” value was -0.549 (50 µM) and -0.139 (200 µM).

Regarding ORC4 C421 (UniProt O43929), the “log2 mean competition ratio” value (50 µM) is -0.275 and the “log2 mean competition ratio” value (200 µM) was determined as 0.144.

Turning to NUF2 C377 (UniProt Q9BZD4), the “log2 mean competition ratio” value was -0.137 (50 µM) and 0.116 (200 µM).

With OFD1 C503 (UniProt O75665), the “log2 mean competition ratio” value was 0.0937 (50 µM) and -0.108 (200 µM).

As for NVL C484 (UniProt O15381), the “log2 mean competition ratio” value is 0.44 (50 µM) and -0.0379 (200 µM).

For NUMBL C161 (UniProt Q9Y6R0), the “log2 mean competition ratio” value runs as follows: (50 µM) 0.818; (200 µM) 0.469.

On to NSD2 C207 (UniProt O96028), for which the “log2 mean competition ratio” value reads like this: (50 µM) 0.0536; (200 µM) 0.249.

Turning to NSD1 C615 (UniProt Q96L73), the “log2 mean competition ratio” value (50 µM) turned out to be 0.185 and the “log2 mean competition ratio” value (200 µM) was determined as 0.173.

For the target NSUN5 C146 (UniProt Q96P11), the “log2 mean competition ratio” value runs as follows: (50 µM) -0.192; (200 µM) 0.106.

As to NXF1 C143 (UniProt Q9UBU9), the “log2 mean competition ratio” value is -0.0184 (50 µM) and -0.0661 (200 µM).

For the target NUP93 C569 (UniProt Q8N1F7), the “log2 mean competition ratio” value reads like this: (50 µM) -0.273; (200 µM) -0.134.

With NR2F2 C314 (UniProt P24468), the “log2 mean competition ratio” value reads like this: (50 µM) 0.183; (200 µM) 8.77e-05.

Turning to NUMBL C147 (UniProt Q9Y6R0), the “log2 mean competition ratio” value amounted to 0.00433 (50 µM) and 0.0629 (200 µM).

For NT5DC1 C179 (UniProt Q5TFE4), the “log2 mean competition ratio” value (50 µM) was -0.221 and the “log2 mean competition ratio” value (200 µM) was -0.301.

Consider NUP160 C65 (UniProt Q12769), for which the “log2 mean competition ratio” value is, setting by setting: (50 µM) 0.0493; (200 µM) -0.456.

Regarding OGDH C331 (UniProt Q02218), the “log2 mean competition ratio” value was -0.178 (50 µM) and -0.165 (200 µM).

NUMBL C99 (UniProt Q9Y6R0): the “log2 mean competition ratio” value (50 µM) was 0.195 and the “log2 mean competition ratio” value (200 µM) was 0.259.

The values are drawn from the supplement of paper PMC11732987, “Enantioselective OTUD7B fragment discovery through chemoproteomics screening and high-throughput optimisation” (Communications Chemistry, 2025).
